Data: US20150038473A1, “STABLE POVIDONE-IODINE COMPOSITIONS WITH STEROIDS OR NON-STEROIDAL ANTI-INFLAMMATORIES” (FORESIGHT BIOTHERAPEUTICS, INC., priority 2011, published 2015)
Several values for one entry are separate records, joined by “and”; a condition that tells them apart may be missing. Equal entries are not always repeated.

Experiment: Stability testing of steroids combined with povidone iodine (PVP-I, 0.4%), HPLC/UV with LC-MS/MS confirmation
Experimental: PVP-I was prepared in water at the concentration of 100 mg/mL (10%). One milliliter of the solution, suspension, or emulsion was mixed with 40 μL of 10% PVP-I in 1.5 mL amber glass vials, followed by storage under both room temperature and 40° C. for 2 weeks and one month. The resultant samples in the presence of PVP-I were analyzed using HPLC. The four steroid levels were measured against the reference standard samples stored under room temperature in the absence of PVP-I (0.4%).
Weigh 1 g of PVP-I and dissolve in 10 mL of water.
Aliquot 1 mL of ophthalmic solution (USP, 0.1%) into eight amber HPLC vials to give the following samples:
Used the resultant samples as time zero samples for HPLC analysis.
The same as Method 1 except the gradient was changed as follows: […]
The software provided with the HPLC system (LCSolution™ software, version 1.23, installed by SHIMADZU) was used to integrate the peak area.
The measured peak area was converted into concentrations (μg/mL) using the following equation: […]
HPLC Methods: The same as HPLC Method 1, 2, and 3 under Section 2.4.
The Day 0, Two Week, and One Month stability test samples were analyzed with reference standard samples (stored at room temperature in the absence of PVP I) using HPLC Method 1.

[1] = 2 weeks, 40° C., with PVP-I 0.4%
[2] = 2 weeks, room temp, with PVP-I 0.4%
[3] = Day 0, room temp, with PVP-I 0.4%, mean of replicates
[4] = Day 0, room temp, with PVP-I 0.4%, single replicates
[5] = one month, 40° C. control, stored without PVP-I
[6] = one month, 40° C., with PVP-I 0.4%, single samples
[7] = one month, room temp, with PVP-I 0.4%

Compound: C[C@@H]1C[C@H]2[C@@H]3CCC4=CC(=O)C=C[C@]4(C)[C@@]3(F)[C@@H](O)C[C@]2(C)[C@@]1(O)C(=O)COP(=O)([O-])[O-].[Na+].[Na+] [Dexamethasone Sodium Phosphate]
- % of Std [1]: 87.50%
- Calc Conc. (calculated concentration in stability samples) [1]: 0.8750 mg/mL
- % of Std [2]: 85.92%
- Calc Conc. (calculated concentration in stability samples) [2]: 0.8592 mg/mL
- % of Std [3]: 103.46%
- Calc Conc. (calculated concentration in stability samples) [3]: 1.0346 mg/mL
- % of Std [4]: 103.37% and 103.55%
- Calc Conc. (calculated concentration in stability samples) [4]: 1.0337 mg/mL and 1.0355 mg/mL
- % of Day 0 [5]: 92.62%
- % of Std [5]: 92.62%
- Calc Conc. (calculated concentration in stability samples) [5]: 0.9262 mg/mL
- Calc Conc. (calculated concentration in stability samples) (one month, 40° C., with PVP-I 0.4%, mean of two runs): 0.8700 mg/mL
- % of Std [6]: 87.34% and 86.66%
- Calc Conc. (calculated concentration in stability samples) [6]: 0.8734 mg/mL and 0.8666 mg/mL
- % of Std [7]: 87.16%
- Calc Conc. (calculated concentration in stability samples) [7]: 0.8716 mg/mL
